Common to all, as to experiment: affinity purification with mass spectrometry
The target of experiment [1] is T1, α-1 syntrophin (SNTA1) (human (endogenous in MCF-7)) (UniProt Q13424).
T1 sequence: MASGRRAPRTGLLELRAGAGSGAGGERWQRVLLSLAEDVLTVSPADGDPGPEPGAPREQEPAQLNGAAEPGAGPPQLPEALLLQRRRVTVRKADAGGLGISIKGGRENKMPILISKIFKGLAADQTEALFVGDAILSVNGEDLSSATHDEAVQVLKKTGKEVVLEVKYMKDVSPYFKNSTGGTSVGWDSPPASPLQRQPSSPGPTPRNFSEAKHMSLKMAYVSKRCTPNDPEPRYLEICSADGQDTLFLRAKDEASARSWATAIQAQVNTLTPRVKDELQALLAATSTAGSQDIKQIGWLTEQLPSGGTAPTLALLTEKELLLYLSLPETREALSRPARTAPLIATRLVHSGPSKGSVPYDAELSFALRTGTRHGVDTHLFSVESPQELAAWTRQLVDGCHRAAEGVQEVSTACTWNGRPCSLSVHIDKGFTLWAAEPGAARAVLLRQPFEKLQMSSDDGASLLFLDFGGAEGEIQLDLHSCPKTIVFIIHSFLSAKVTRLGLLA

Chains of the proteins cited; added tags and fusions are not shown. Lines headed by an entry give the natural chain unless they say otherwise; changes in a name come on top. A line that says so, or that is headed by a name, gives the form on record, which may keep a tag or linker. Residues count along the entry.
HNRNPA2 (P22626-2, form named): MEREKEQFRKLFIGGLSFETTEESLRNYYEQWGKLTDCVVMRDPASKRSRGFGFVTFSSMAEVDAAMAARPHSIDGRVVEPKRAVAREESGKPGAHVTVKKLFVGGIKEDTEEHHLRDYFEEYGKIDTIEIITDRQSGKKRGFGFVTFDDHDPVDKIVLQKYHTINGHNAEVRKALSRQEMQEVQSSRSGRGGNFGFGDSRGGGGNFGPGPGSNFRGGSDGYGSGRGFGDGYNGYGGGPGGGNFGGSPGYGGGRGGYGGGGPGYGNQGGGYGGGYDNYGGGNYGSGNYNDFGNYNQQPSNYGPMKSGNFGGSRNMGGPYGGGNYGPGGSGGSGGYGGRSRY
UniProt Q9BQE3: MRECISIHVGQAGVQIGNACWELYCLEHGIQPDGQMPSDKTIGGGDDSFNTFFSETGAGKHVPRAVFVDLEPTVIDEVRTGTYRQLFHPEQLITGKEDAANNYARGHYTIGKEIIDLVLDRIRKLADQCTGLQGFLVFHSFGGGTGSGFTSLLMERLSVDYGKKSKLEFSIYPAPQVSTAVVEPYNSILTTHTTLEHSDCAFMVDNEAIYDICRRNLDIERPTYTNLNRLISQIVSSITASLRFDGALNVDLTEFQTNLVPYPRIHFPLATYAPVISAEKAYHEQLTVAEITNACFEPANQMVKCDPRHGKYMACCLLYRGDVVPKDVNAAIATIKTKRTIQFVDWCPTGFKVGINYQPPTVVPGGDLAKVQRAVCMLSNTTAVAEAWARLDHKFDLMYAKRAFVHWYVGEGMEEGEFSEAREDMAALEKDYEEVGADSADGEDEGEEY
UniProt P62258: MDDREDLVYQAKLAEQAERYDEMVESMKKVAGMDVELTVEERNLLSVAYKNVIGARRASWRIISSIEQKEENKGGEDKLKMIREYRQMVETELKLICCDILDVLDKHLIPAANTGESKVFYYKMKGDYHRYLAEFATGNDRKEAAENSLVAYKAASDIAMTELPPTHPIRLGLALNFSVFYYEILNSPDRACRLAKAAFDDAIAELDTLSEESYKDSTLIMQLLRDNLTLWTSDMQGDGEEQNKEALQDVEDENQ
UniProt P04792: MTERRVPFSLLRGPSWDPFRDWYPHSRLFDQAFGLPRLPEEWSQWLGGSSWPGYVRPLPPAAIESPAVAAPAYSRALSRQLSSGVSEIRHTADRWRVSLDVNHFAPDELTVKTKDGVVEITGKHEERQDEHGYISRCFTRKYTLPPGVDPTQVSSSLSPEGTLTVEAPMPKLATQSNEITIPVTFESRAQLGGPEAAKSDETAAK
UniProt P21333: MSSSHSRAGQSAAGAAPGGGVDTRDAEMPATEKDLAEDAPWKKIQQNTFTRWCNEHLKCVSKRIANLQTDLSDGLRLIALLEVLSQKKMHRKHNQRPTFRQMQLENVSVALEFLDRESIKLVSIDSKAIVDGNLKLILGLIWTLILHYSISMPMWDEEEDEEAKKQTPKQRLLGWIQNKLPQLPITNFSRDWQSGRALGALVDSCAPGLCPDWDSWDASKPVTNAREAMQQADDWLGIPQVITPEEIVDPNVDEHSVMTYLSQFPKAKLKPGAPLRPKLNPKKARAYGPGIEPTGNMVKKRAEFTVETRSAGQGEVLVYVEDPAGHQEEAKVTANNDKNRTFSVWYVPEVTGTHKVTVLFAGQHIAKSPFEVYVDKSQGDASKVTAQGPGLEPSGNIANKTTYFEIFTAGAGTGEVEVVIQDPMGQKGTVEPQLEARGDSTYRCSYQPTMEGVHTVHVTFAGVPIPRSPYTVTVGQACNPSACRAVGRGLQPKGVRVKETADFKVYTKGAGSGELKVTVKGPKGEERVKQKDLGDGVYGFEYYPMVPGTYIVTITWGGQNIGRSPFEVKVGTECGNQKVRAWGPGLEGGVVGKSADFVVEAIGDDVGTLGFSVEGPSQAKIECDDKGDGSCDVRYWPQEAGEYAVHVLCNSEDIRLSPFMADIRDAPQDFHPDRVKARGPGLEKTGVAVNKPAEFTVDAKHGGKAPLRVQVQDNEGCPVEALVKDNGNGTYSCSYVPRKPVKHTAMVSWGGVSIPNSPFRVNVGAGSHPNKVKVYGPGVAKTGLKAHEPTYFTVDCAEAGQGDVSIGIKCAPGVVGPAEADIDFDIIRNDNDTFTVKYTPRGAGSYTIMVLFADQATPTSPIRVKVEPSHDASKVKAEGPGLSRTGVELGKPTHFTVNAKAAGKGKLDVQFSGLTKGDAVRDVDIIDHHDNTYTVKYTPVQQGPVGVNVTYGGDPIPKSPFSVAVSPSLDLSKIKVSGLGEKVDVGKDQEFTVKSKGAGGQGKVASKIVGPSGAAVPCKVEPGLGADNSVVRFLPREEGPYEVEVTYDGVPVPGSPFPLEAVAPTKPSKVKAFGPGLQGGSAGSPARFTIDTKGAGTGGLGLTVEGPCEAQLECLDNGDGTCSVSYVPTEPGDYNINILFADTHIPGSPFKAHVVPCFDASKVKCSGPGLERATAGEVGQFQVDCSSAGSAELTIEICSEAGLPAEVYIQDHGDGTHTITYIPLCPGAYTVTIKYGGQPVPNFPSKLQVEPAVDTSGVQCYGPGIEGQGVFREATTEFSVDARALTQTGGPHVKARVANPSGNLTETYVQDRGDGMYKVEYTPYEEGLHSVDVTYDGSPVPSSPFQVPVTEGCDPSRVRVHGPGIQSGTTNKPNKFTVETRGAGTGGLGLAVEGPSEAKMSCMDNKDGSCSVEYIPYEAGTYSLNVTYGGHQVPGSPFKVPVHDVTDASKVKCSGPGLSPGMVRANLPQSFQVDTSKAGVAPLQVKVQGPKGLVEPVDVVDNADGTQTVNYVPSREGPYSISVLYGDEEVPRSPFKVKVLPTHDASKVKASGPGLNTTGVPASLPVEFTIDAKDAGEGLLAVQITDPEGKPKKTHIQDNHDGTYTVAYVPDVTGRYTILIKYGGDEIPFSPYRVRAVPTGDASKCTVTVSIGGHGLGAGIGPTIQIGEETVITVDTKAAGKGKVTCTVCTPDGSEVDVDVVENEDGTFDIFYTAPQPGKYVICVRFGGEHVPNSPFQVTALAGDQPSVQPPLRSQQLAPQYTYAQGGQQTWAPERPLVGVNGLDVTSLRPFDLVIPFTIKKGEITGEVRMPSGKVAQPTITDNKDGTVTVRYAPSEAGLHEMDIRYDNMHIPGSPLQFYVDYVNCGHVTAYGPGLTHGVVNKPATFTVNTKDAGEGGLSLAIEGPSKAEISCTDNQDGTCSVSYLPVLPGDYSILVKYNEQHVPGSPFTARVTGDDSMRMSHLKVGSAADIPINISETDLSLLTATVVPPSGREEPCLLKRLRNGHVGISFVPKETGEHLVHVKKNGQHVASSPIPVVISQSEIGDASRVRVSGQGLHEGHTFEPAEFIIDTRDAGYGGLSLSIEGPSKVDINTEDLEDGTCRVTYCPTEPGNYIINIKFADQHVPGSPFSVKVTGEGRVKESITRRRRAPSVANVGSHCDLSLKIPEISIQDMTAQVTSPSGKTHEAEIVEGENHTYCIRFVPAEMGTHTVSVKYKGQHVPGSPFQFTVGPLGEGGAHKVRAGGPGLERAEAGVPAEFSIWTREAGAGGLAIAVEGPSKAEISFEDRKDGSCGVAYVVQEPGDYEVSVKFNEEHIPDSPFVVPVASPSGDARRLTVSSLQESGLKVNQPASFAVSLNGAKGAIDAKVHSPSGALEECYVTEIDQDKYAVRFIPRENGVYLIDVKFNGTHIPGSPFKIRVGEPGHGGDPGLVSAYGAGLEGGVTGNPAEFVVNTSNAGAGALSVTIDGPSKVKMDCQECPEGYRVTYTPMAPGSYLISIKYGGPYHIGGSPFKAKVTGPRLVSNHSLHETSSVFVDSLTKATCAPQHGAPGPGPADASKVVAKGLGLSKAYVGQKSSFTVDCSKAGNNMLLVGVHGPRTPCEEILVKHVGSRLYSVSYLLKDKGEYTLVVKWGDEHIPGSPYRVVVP
UniProt P38646, residues 47-679: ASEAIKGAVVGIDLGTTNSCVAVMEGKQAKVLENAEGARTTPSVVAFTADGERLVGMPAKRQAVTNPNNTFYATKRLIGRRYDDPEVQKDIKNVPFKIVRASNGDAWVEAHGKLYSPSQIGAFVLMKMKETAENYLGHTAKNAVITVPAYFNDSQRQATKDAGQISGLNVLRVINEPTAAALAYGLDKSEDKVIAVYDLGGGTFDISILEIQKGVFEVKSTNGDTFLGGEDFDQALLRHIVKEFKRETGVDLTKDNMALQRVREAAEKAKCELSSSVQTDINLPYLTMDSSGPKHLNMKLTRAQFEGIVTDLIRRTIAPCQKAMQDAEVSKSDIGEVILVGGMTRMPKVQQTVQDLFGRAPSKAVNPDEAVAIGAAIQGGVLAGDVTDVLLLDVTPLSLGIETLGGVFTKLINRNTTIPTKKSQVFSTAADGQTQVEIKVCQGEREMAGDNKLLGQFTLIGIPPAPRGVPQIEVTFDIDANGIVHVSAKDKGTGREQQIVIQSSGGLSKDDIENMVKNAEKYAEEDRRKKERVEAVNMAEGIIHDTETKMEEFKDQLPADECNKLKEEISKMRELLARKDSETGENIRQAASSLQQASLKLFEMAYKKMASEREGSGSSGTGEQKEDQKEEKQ

The target in experiment [2] is T1, α-1 syntrophin (SNTA1) (human (endogenous in MCF-7)). This is another data set of the same source.
The target is the same in experiment [3]. This is another data set of the same source.

Like-named read-outs stand apart in the source and are kept apart here. These are yes or no findings as the source states them, for the method shown. In cells and extracts the contact can be indirect. These calls come from enrichment with a bait or labelling near it, and not all partners need be listed. For some of these results: A no says only that the protein was not detected with the bait.

For HIST1H2B (human (endogenous in MCF-7)), the binding result in experiment [1] is listed as “binds”.

As for HNRNPA2 (from UniProt P22626-2 1-341), the binding entry in experiment [1] was “no binding”.

On to TUBA1C (from UniProt Q9BQE3 1-449), for which, in experiment [1], the binding entry was “no binding”.

Turning to “14-3-3 protein epsilon (from UniProt P62258 1-255)”, the binding result in experiment [1] is on record as “binds”.

As to AHNAK (from UniProt Q09666 1-5890), the binding result in experiment [1] is recorded as “binds”.

Take “E3 ubiquitin-protein ligase RNF213 isoform X2 (human (endogenous in MCF-7))”: in experiment [1], the binding result was “binds”.

For the molecule HSPB1 (from UniProt P04792 1-205), the binding result in experiment [1] and in experiment [2] was “binds” each time.

“Filamin A isoform 2 (from UniProt P21333 1-2647)”: the binding result in experiment [1] and in experiment [3] was “no binding” each time.

Consider “Stress-70 protein (from UniProt P38646 47-679)”, for which the binding result in experiment [1] and in experiment [3] was “no binding” in each case.

For “Peroxiredoxin-4 isoform X1 (human (endogenous in MCF-7))”, in experiment [1], the binding result is “binds”.

B1: CCDC124 (protein, UniProt Q96CT7 1-223)
chain: MPKKFQGENTKSAAARARRAEAKAAADAKKQKELEDAYWKDDDKHVMRKEQRKEEKEKRRLDQLERKKETQRLLEEEDSKLKGGKAPRVATSSKVTRAQIEDTLRRDHQLREAPDTAEKAKSHLEVPLEENVNRRVLEEGSVEARTIEDAIAVLSVAEEAADRHPERRMRAAFTAFEEAQLPRLKQENPNMRLSQLKQLLKKEWLRSPDNPMNQRAVPFNAPK
Take B1: the binding entry in experiment [1] is “no binding”.

B2: Protein S100-A11 (protein, UniProt P31949 1-105)
chain: MAKISSPTETERCIESLIAVFQKYAGKDGYNYTLSKTEFLSFMNTELAAFTKNQKDPGVLDRMMKKLDTNSDGQLDFSEFLNLIGGLAMACHDSFLKAVPSQKRT
For the molecule B2, in experiment [1], the binding entry is “binds”.

B3: Keratin type I cytoskeletal 18 (protein, UniProt P05783 1-430)
chain: MSFTTRSTFSTNYRSLGSVQAPSYGARPVSSAASVYAGAGGSGSRISVSRSTSFRGGMGSGGLATGIAGGLAGMGGIQNEKETMQSLNDRLASYLDRVRSLETENRRLESKIREHLEKKGPQVRDWSHYFKIIEDLRAQIFANTVDNARIVLQIDNARLAADDFRVKYETELAMRQSVENDIHGLRKVIDDTNITRLQLETEIEALKEELLFMKKNHEEEVKGLQAQIASSGLTVEVDAPKSQDLAKIMADIRAQYDELARKNREELDKYWSQQIEESTTVVTTQSAEVGAAETTLTELRRTVQSLEIDLDSMRNLKASLENSLREVEARYALQMEQLNGILLHLESELAQTRAEGQRQAQEYEALLNIKVKLEAEIATYRRLLEDGEDFNLGDALDSSNSMQTIQKTTTRRIVDGKVVSETNDTKVLRH
As for B3, the binding entry in experiment [1] is on record as “binds”.

Values taken from doi:10.1101/2022.03.16.484629.
